Laboratory results: article doi:10.1101/2020.04.01.020479

Chains of the proteins cited; added tags and fusions are not shown.
UniProt Q8IXI1: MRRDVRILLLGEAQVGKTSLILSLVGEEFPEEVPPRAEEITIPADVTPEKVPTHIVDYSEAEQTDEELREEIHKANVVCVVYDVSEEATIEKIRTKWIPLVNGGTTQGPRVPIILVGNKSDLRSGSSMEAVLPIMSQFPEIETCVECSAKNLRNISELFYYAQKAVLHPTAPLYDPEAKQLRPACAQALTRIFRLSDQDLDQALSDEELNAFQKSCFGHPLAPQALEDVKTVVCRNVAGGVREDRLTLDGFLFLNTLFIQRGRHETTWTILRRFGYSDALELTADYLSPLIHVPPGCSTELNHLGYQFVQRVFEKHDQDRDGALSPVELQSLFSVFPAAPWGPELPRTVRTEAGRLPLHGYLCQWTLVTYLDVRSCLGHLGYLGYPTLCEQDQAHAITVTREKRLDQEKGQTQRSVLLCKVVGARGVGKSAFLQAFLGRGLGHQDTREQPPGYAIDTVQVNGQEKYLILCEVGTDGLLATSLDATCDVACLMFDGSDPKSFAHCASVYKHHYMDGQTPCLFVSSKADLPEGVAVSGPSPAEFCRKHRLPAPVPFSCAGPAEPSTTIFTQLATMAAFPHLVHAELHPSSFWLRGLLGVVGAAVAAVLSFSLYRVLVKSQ
UniProt Q14318: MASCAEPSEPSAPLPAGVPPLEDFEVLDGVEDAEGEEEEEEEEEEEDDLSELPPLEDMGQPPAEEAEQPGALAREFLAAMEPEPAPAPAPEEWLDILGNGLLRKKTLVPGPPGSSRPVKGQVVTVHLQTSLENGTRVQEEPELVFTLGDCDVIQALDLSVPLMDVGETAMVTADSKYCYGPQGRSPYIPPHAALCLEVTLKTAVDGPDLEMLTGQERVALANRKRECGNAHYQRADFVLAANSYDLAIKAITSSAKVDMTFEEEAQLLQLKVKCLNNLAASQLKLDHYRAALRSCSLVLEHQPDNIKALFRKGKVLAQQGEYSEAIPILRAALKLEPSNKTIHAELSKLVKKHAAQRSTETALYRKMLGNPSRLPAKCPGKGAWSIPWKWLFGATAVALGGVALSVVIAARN

What was measured:
Test in all cases: proximity labelling
[1] = target: T1, PTPN1 BirA*-FLAG bait (human) (UniProt P18031)
T1 sequence: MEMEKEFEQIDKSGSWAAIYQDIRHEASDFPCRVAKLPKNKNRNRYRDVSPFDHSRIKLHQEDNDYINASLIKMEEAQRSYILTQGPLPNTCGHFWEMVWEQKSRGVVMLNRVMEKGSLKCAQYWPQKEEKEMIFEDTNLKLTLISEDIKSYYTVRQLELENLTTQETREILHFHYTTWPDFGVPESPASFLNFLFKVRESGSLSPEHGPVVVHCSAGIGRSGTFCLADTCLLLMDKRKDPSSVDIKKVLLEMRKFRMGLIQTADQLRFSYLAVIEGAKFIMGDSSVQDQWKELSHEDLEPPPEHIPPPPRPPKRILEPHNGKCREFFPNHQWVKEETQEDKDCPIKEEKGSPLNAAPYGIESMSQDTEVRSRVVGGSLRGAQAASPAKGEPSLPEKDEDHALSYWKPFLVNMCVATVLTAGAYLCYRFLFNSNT

[2] = target: RHOT2 BirA*-FLAG bait (human) (UniProt Q8IXI1)
[3] = target: T2, SLC25A46 BirA*-FLAG bait (human) (UniProt Q96AG3)
T2 sequence: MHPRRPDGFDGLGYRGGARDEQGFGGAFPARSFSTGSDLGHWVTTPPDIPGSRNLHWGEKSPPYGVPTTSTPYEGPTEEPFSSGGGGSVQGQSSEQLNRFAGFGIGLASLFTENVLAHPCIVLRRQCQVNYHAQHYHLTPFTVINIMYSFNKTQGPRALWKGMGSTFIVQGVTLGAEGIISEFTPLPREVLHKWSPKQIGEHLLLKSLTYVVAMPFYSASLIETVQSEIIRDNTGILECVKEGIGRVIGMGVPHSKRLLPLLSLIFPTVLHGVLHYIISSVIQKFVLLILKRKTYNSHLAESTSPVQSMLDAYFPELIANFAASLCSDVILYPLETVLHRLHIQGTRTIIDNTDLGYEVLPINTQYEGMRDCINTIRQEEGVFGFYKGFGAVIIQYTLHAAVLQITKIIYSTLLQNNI

RMDN3-BirA*-FLAG (human) = target: T3, RMDN3-BirA*-FLAG (human) (UniProt Q96TC7)
T3 sequence: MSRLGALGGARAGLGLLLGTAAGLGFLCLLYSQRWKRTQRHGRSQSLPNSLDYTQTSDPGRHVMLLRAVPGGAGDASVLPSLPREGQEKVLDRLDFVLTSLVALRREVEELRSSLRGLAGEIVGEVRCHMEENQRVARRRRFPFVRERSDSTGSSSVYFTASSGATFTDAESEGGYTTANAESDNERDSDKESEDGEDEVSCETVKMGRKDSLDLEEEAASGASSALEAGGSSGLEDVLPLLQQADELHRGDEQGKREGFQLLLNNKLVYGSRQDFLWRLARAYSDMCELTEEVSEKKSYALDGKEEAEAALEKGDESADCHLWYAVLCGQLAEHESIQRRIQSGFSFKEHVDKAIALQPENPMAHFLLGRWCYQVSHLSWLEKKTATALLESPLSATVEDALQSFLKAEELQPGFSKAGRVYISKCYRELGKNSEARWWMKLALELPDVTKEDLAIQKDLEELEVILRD

BirA*-FLAG-FKBP8 (human) = BirA*-FLAG-FKBP8 (human) (UniProt Q14318)
[4] = target: T4, MTRF1L-BirA*-FLAG (human) (UniProt Q9UGC7)
T4 sequence: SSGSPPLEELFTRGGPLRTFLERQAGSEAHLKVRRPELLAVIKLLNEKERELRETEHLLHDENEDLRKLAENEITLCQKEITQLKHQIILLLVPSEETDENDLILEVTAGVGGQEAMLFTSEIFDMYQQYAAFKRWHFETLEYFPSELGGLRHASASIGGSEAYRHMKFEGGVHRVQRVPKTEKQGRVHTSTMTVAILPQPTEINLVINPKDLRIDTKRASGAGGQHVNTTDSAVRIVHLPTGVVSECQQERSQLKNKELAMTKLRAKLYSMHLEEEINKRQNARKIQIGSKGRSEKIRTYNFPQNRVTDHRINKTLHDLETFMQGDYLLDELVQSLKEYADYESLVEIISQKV

Measured: binding

B1: SMCR8 (protein, UniProt Q8TEV9 1-937)
chain: MISAPDVVAFTKEEEYEEEPYNEPALPEEYSVPLFPFASQGANPWSKLSGAKFSRDFILISEFSEQVGPQPLLTIPNDTKVFGTFDLNYFSLRIMSVDYQASFVGHPPGSAYPKLNFVEDSKVVLGDSKEGAFAYVHHLTLYDLEARGFVRPFCMAYISADQHKIMQQFQELSAEFSRASECLKTGNRKAFAGELEKKLKDLDYTRTVLHTETEIQKKANDKGFYSSQAIEKANELASVEKSIIEHQDLLKQIRSYPHRKLKGHDLCPGEMEHIQDQASQASTTSNPDESADTDLYTCRPAYTPKLIKAKSTKCFDKKLKTLEELCDTEYFTQTLAQLSHIEHMFRGDLCYLLTSQIDRALLKQQHITNFLFEDFVEVDDRMVEKQESIPSKPSQDRPPSSSLEECPIPKVLISVGSYKSSVESVLIKMEQELGDEEYKEVEVTELSSFDPQENLDYLDMDMKGSISSGESIEVLGTEKSTSVLSKSDSQASLTVPLSPQVVRSKAVSHRTISEDSIEVLSTCPSEALIPDDFKASYPSAINEEESYPDGNEGAIRFQASISPPELGETEEGSIENTPSQIDSSCCIGKESDGQLVLPSTPAHTHSDEDGVVSSPPQRHRQKDQGFRVDFSVENANPSSRDNSCEGFPAYELDPSHLLASRDISKTSLDNYSDTTSYVSSVASTSSDRIPSAYPAGLSSDRHKKRAGQNALKFIRQYPFAHPAIYSLLSGRTLVVLGEDEAIVRKLVTALAIFVPSYGCYAKPVKHWASSPLHIMDFQKWKLIGLQRVASPAGAGTLHALSRYSRYTSILDLDNKTLRCPLYRGTLVPRLADHRTQIKRGSTYYLHVQSMLTQLCSKAFLYTFCHHLHLPTHDKETEELVASRQMSFLKLTLGLVNEDVRVVQYLAELLKLHYMQESPGTSHPMLRFDYVPSFLYKI
binds: [1] | [2] | [3] | RMDN3-BirA*-FLAG (human) | BirA*-FLAG-FKBP8 (human)

B2: WDR41 (protein, UniProt Q9HAD4 1-459)
chain: MLRWLIGGGREPQGLAEKSPLQTIGEEQTQNPYTELLVLKAHHDIVRFLVQLDDYRFASAGDDGIVVVWNAQTGEKLLELNGHTQKITAIITFPSLESCEEKNQLILTASADRTVIVWDGDTTRQVQRISCFQSTVKCLTVLQRLDVWLSGGNDLCVWNRKLDLLCKTSHLSDTGISALVEIPKNCVVAAVGKELIIFRLVAPTEGSLEWDILEVKRLLDHQDNILSLINVNDLSFVTGSHVGELIIWDALDWTMQAYERNFWDPSPQLDTQQEIKLCQKSNDISIHHFTCDEENVFAAVGRGLYVYSLQMKRVIACQKTAHDSNVLHVARLPNRQLISCSEDGSVRIWELREKQQLAAEPVPTGFFNMWGFGRVSKQASQPVKKQQENATSCSLELIGDLIGHSSSVEMFLYFEDHGLVTCSADHLIILWKNGERESGLRSLRLFQKLEENGDLYLAV
binds: [1] | [2] | [3] | RMDN3-BirA*-FLAG (human) | BirA*-FLAG-FKBP8 (human)

B3: TDRKH (protein, UniProt Q9Y2W6 1-561)
chain: MSTERTSWTSLSTIQKIALGLGIPASATVAYILYRRYRESREERLTFVGEDDIEIEMRVPQEAVKLIIGRQGANIKQLRKQTGARIDVDTEDVGDERVLLISGFPVQVCKAKAAIHQILTENTPVSEQLSVPQRSVGRIIGRGGETIRSICKASGAKITCDKESEGTLLLSRLIKISGTQKEVAAAKHLILEKVSEDEELRKRIAHSAETRVPRKQPISVRREDMTEPGGAGEPALWKNTSSSMEPTAPLVTPPPKGGGDMAVVVSKEGSWEKPSDDSFQKSEAQAIPEMPMFEIPSPDFSFHADEYLEVYVSASEHPNHFWIQIVGSRSLQLDKLVNEMTQHYENSVPEDLTVHVGDIVAAPLPTNGSWYRARVLGTLENGNLDLYFVDFGDNGDCPLKDLRALRSDFLSLPFQAIECSLARIAPSGDQWEEEALDEFDRLTHCADWKPLVAKISSYVQTGISTWPKIYLYDTSNGKKLDIGLELVHKGYAIELPEDIEENRAVPDMLKDMATETDASLSTLLTETKKSSGEITHTLSCLSLSEAASMSGDDNLEDDYLL
binds: [1] | [2] | [3] | RMDN3-BirA*-FLAG (human)

B4: OCIAD1 (protein, UniProt Q9NX40 1-245)
chain: MNGRADFREPNAEVPRPIPHIGPDYIPTEEERRVFAECNDESFWFRSVPLAATSMLITQGLISKGILSSHPKYGSIPKLILACIMGYFAGKLSYVKTCQEKFKKLENSPLGEALRSGQARRSSPPGHYYQKSKYDSSVSGQSSFVTSPAADNIEMLPHYEPIPFSSSMNESAPTGITDHIVQGPDPNLEESPKRKNITYEELRNKNRESYEVSLTQKTDPSVRPMHERVPKKEVKVNKYGDTWDE
binds: [1] | [2] | [3] | RMDN3-BirA*-FLAG (human) | BirA*-FLAG-FKBP8 (human)

B5: ACAD9 (endogenous prey) (protein, UniProt Q9H845 38-621)
chain: AFAKELFLGKIKKKEVFPFPEVSQDELNEINQFLGPVEKFFTEEVDSRKIDQEGKIPDETLEKLKSLGLFGLQVPEEYGGLGFSNTMYSRLGEIISMDGSITVTLAAHQAIGLKGIILAGTEEQKAKYLPKLASGEHIAAFCLTEPASGSDAASIRSRATLSEDKKHYILNGSKVWITNGGLANIFTVFAKTEVVDSDGSVKDKITAFIVERDFGGVTNGKPEDKLGIRGSNTCEVHFENTKIPVENILGEVGDGFKVAMNILNSGRFSMGSVVAGLLKRLIEMTAEYACTRKQFNKRLSEFGLIQEKFALMAQKAYVMESMTYLTAGMLDQPGFPDCSIEAAMVKVFSSEAAWQCVSEALQILGGLGYTRDYPYERILRDTRILLIFEGTNEILRMYIALTGLQHAGRILTTRIHELKQAKVSTVMDTVGRRLRDSLGRTVDLGLTGNHGVVHPSLADSANKFEENTYCFGRTVETLLLRFGKTIMEEQLVLKRVANILINLYGMTAVLSRASRSIRIGLRNHDHEVLLANTFCVEAYLQNLFSLSQLDKYAPENLDEQIKKVSQQILEKRAYICAHPLDRTC
binds: [4]

B6: C9orf72 (protein, UniProt Q96LT7 1-481)
chain: MSTLCPPPSPAVAKTEIALSGKSPLLAATFAYWDNILGPRVRHIWAPKTEQVLLSDGEITFLANHTLNGEILRNAESGAIDVKFFVLSEKGVIIVSLIFDGNWNGDRSTYGLSIILPQTELSFYLPLHRVCVDRLTHIIRKGRIWMHKERQENVQKIILEGTERMEDQGQSIIPMLTGEVIPVMELLSSMKSHSVPEEIDIADTVLNDDDIGDSCHEGFLLNAISSHLQTCGCSVVVGSSAEKVNKIVRTLCLFLTPAERKCSRLCEAESSFKYESGLFVQGLLKDSTGSFVLPFRQVMYAPYPTTHIDVDVNTVKQMPPCHEHIYNQRRYMRSELTAFWRATSEEDMAQDTIIYTDESFTPDLNIFQDVLHRDTLVKAFLDQVFQLKPGLSLRSTFLAQFLLVLHRKALTLIKYIEDDTQKGKKPFKSLRNLKIDLDLTAEGDLNIIMALAEKIKPGLHSFIFGRPFYTSVQERDVLMTF
binds: [1] | [2] | [3] | RMDN3-BirA*-FLAG (human) | BirA*-FLAG-FKBP8 (human)

B7: MFF (protein, UniProt Q9GZY8 1-342)
chain: MSKGTSSDTSLGRVSRAAFPSPTAAEMAEISRIQYEMEYTEGISQRMRVPEKLKVAPPNADLEQGFQEGVPNASVIMQVPERIVVAGNNEDVSFSRPADLDLIQSTPFKPLALKTPPRVLTLSERPLDFLDLERPPTTPQNEEIRAVGRLKRERSMSENAVRQNGQLVRNDSLWHRSDSAPRNKISRFQAPISAPEYTVTPSPQQARVCPPHMLPEDGANLSSARGILSLIQSSTRRAYQQILDVLDENRRPVLRGGSAAATSNPHHDNVRYGISNIDTTIEGTSDDLTVVDAASLRRQIIKLNRRLQLLEEENKERAKREMVMYSITVAFWLLNSWLWFRR
binds: [1] | [2] | [3] | RMDN3-BirA*-FLAG (human)

Results are given in words; binding and its absence hold for the method and conditions named. In cells and extracts the contact can be indirect. These calls come from enrichment with a bait or labelling near it, and not all partners need be listed. For some assays here: Tags and fused reporters may be left off the sequences shown.
